Percent effect of library compounds

Data taken from ChEMBL document CHEMBL3988442, “University of Dundee, Small-Polar-MMV Screening Library” (2021).

Mtb glucose medium: 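Whole-cell growth test on Mycobacterium tuberculosis, read after 3 days in glucose-containing 7H9 medium; the read-out is not stated. Tested at 500 µM. Higher reads as more growth inhibition (inferred: compounds with an IC50 in retests scored well above the rest). Size under these conditions: about 18,000 compounds, about 1,400 of them at 50% or above in at least one test.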
Mtb cholesterol medium: 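Whole-cell growth test on Mycobacterium tuberculosis, read after 4 days in a medium based on cholesterol and the lipid DPPC; the read-out is not stated. Tested at 500 µM. Higher reads as more growth inhibition (inferred: compounds with an IC50 in retests scored well above the rest). About 18,000 compounds were tested under these conditions; 5% (about 900) showed 50% or more at least once.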

Each number is a percent effect as filed. The record does not define 0% and 100%; most values in the screen are far below 50% and negative numbers occur (in some assays of this library far below -100). Compounds were drawn at random from those tested, without regard to their results.

compound: O=C(c1cccs1)N1CCC(Nc2cccnc2)CC1
Mtb glucose medium: 28.71%
Mtb cholesterol medium: 16.92%

compound: Cc1nc(C(=O)NCCN2CCCCC2CO)cs1 (configuration not stated)
Mtb glucose medium: 2.169%
Mtb cholesterol medium: -6.904%

compound: CCN(CC)C(=O)CN1CCC(N)CC1
Mtb glucose medium: -6.726%
Mtb cholesterol medium: -21.18%

compound: Cn1ncnc1NC(=O)CCc1ccc(F)cc1
Mtb glucose medium: -1.47%
Mtb cholesterol medium: 0.4926%

compound: COC(=O)Cc1cc(OC)ccc1S(N)(=O)=O
Mtb glucose medium: 21.4%
Mtb cholesterol medium: 3.559%

compound: Cc1cnc(CN2CCC(O)(C(F)(F)F)CC2)o1
Mtb glucose medium: 16.89%
Mtb cholesterol medium: 27.09%

compound: Cn1cc(Br)c(CC#N)n1
Mtb glucose medium: 7.338%
Mtb cholesterol medium: 7.846%

compound: C[C@@H]1CN(C(=O)CCN(C)S(C)(=O)=O)C[C@@]1(O)C1CC1
Mtb glucose medium: 2.047%
Mtb cholesterol medium: 8.681%

compound: CC(C)NS(=O)(=O)c1csc(C(N)=O)c1
Mtb glucose medium: 5.018%
Mtb cholesterol medium: 5.397%

compound: Clc1cnn(CCN2CCN(C3CCNC3)CC2)c1 (configuration not stated)
Mtb glucose medium: 9.719%
Mtb cholesterol medium: -3.053%

compound: O=C(CC1CCCC1)NCC1CCCCC(=O)N1 (configuration not stated)
Mtb glucose medium: -2.064%
Mtb cholesterol medium: -14.16%

compound: Nc1nc(-c2ccc(S(N)(=O)=O)cc2)cs1
Mtb glucose medium: 27.41%
Mtb cholesterol medium: 10.57%

compound: CC(C)(C)C(=O)COc1ccccc1C(N)=O
Mtb glucose medium: 25.54%
Mtb cholesterol medium: 16.07%

compound: Cc1nnsc1CN(C)C(=O)c1ccccc1
Mtb glucose medium: 35.83%
Mtb cholesterol medium: 21.53%

compound: O=C(CC1CCCN1)c1cccs1 (configuration not stated)
Mtb glucose medium: 7.924%
Mtb cholesterol medium: 13.27%

compound: CN(C)C(=O)NCCNc1cccc(Br)c1
Mtb glucose medium: 34.81%
Mtb cholesterol medium: 23.32%

compound: COc1ccc(NC(=O)N2CCCC(N)C2)c(C)c1 (configuration not stated)
Mtb glucose medium: 11.78%
Mtb cholesterol medium: 26.24%

compound: CC(C)=CCCNC(=O)N1CCCC(CO)C1 (configuration not stated)
Mtb glucose medium: 20.57%
Mtb cholesterol medium: 17.37%

compound: Cc1n[nH]cc1CNCC(C)(C)O
Mtb glucose medium: -5.547%
Mtb cholesterol medium: -1.188%

compound: O=S(=O)(CCN1CCCCC1)c1ccccc1
Mtb glucose medium: 32.82%
Mtb cholesterol medium: 35.1%

compound: CC(C)C(=O)NCc1ccnc(N2CCOCC2)c1
Mtb glucose medium: 1.835%
Mtb cholesterol medium: -14.97%

compound: CC(=O)NC1CCCNC1 (configuration not stated)
Mtb glucose medium: 2.699%
Mtb cholesterol medium: 16.13%

compound: Cc1ccsc1C(C)NCCS(=O)(=O)N1CCOCC1 (configuration not stated)
Mtb glucose medium: 38.69%
Mtb cholesterol medium: 17.35%

compound: CCCNC(=O)c1ccc(C(=O)OC)cc1
Mtb glucose medium: 53.9%
Mtb cholesterol medium: 35.26%

compound: CCN(CC)C(=O)COC(=O)c1ccc(O)cc1O
Mtb glucose medium: 20.67%
Mtb cholesterol medium: 26.11%

compound: OCC1CCN(Cc2nc(C3CC3)no2)CC1
Mtb glucose medium: 33.24%
Mtb cholesterol medium: 18.38%

compound: COc1cnc(C#N)cc1OC
Mtb glucose medium: -9.865%
Mtb cholesterol medium: -25.08%

compound: O=C(Nc1cccc(-n2cnnn2)c1)C1CCCO1 (configuration not stated)
Mtb glucose medium: 9.294%
Mtb cholesterol medium: 4.515%

compound: Cc1c(N)cnn1C1CCOCC1
Mtb glucose medium: 10.48%
Mtb cholesterol medium: -0.3539%

compound: CC(O)CCN(C)CC(=O)N(C)C1CC1 (configuration not stated)
Mtb glucose medium: -0.2099%
Mtb cholesterol medium: -0.02548%

compound: O=C(CSc1nnc(-c2ccccc2F)o1)NC1CC1
Mtb glucose medium: -1.169%
Mtb cholesterol medium: -18.01%

compound: CCc1nnc(CN2CCSCC2c2cnn(C)c2)o1 (configuration not stated)
Mtb glucose medium: -7.833%
Mtb cholesterol medium: -11.68%

compound: Nc1c(NCc2ccncc2)ncnc1-n1cccn1
Mtb glucose medium: 36.46%
Mtb cholesterol medium: 14.31%

compound: COCCN(CCC#N)S(=O)(=O)c1c(C)nn(C)c1Cl
Mtb glucose medium: 6.224%
Mtb cholesterol medium: 1.201%

For reference, 3 entries once more:

CC(O)CCN(C)CC(=O)N(C)C1CC1 (configuration not stated) read Mtb glucose medium: -0.2099%; Mtb cholesterol medium: -0.02548%.
CC(C)C(=O)NCc1ccnc(N2CCOCC2)c1 read Mtb glucose medium: 1.835%; Mtb cholesterol medium: -14.97%.
Nc1c(NCc2ccncc2)ncnc1-n1cccn1 read Mtb glucose medium: 36.46%; Mtb cholesterol medium: 14.31%.